# These are yes or no findings as the source states them, for the method shown. Some entries that bind do so weakly or less than the wild type.
# B1: AtCOPT6 (protein, UniProt Q8GWP3 1-145)
# chain: MDHGNMPPSSPSSMVNHTNSNMIMMHMTFFWGKNTEILFSGWPGTSLGMYVLCLIVVFLLAVIVEWLAHSSILRGRGSTSRAKGLVQTAVYTLKTGLAYLVMLAVMSFNGGVFIVAIAGFAVGFMLFGSTAFKNPSDDEKPFEQL
# Target: AtCOPT6 (A. thaliana) (UniProt Q8GWP3)
# Assay: two-hybrid; split-ubiquitin membrane yeast two-hybrid (MYTH); bait COPT-Cub-PLV in THY.AP4, prey COPT-NubG in THY.AP5; diploid cells, 2 days of growth on SC medium lacking adenine and histidine; verified by beta-galactosidase assay
binder,measurement,value
B1,binding,binds

# Source: paper PMC4039008
